# Assay results taken from article PMC4841774 (eLife, 2016).
# Amino acid sequences for entries named in this document (tags omitted). Residues count along the entry.
# UniProt Q13330, residues 162-715: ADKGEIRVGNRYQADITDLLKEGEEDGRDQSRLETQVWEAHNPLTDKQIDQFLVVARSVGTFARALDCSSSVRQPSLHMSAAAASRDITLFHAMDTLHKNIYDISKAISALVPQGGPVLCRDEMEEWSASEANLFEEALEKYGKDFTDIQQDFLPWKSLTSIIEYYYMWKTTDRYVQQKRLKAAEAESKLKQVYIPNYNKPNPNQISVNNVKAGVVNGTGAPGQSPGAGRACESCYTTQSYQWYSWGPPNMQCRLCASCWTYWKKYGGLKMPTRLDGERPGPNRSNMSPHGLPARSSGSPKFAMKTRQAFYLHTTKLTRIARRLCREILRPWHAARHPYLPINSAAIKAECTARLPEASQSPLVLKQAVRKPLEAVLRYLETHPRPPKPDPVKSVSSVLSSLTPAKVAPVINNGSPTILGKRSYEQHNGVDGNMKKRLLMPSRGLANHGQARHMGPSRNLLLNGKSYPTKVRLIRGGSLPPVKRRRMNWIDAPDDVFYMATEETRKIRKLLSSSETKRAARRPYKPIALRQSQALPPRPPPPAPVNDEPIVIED
# UniProt Q13547: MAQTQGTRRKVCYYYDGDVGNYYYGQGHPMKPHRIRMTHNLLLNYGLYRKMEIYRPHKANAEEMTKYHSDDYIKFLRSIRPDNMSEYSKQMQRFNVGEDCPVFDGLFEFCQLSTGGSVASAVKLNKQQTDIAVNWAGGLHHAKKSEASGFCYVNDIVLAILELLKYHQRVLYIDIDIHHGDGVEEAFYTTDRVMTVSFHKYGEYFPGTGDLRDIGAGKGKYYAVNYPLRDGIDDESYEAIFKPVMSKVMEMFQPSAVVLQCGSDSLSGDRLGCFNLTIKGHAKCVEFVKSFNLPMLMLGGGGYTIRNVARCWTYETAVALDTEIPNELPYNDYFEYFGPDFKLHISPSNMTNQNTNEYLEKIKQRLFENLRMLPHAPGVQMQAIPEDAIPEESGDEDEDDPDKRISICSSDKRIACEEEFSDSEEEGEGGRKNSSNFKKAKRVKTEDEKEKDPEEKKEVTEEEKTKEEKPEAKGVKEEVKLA
# These are yes or no findings as the source states them, for the method shown. Binding seen in cells or lysates may run through a third protein. These calls come from enrichment with a bait or labelling near it, and not all partners need be listed.
# Target: MTA1-C (residues 162–715) (human) (UniProt Q13330)
# Assay: affinity purification with mass spectrometry; Flag-tagged MTA1 fragments co-transfected with HDAC1 in HEK293F; complexes purified on FLAG resin; endogenous RBBP4/7 identified by peptide mass spectrometry; ratio by densitometry of the SDS-PAGE gel (ImageJ)
substance,measurement,value
"HDAC1 (residues 1–482), untagged (from UniProt Q13547 1-482) (enzyme)",binding,binds
